These are yes or no findings as the source states them, for the method shown. In cells and extracts the contact can be indirect. Some entries that bind do so weakly or less than the wild type.

By UniProt entry, the sequences of proteins in these tests, tags left out.
UniProt Q13546: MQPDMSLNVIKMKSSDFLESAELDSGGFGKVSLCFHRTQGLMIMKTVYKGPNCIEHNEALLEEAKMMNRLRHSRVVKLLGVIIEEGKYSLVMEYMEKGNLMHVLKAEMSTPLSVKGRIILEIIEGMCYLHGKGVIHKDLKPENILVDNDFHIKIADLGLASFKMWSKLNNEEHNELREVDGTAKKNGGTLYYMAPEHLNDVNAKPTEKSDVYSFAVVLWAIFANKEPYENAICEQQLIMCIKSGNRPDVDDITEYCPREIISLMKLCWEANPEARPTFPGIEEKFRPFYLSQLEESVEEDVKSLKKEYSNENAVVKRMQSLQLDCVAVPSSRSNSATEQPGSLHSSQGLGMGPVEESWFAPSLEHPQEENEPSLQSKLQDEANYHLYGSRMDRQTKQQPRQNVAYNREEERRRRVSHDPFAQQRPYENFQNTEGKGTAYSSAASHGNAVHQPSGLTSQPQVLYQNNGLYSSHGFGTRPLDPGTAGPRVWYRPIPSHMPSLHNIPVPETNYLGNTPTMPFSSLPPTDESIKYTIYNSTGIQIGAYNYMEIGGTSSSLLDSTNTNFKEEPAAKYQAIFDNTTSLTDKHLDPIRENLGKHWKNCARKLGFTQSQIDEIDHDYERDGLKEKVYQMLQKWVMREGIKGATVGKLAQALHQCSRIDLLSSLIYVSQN

For experiment [1], the target named is DENV NS3 (NS3-V5, expressed without NS2B, DENV2 strain New Guinea C) (DENV2 strain New Guinea C) (UniProt P14340). The experiment in a line: co-IP.
Experiment [2] deals with Flag-tagged RIPK1 (Receptor Interacting Protein Kinase I) (UniProt Q13546). The experiment in a line: co-IP; HEK 293T co-transfected with Flag-RIPK1 and DENV plasmids; RIPA lysate (100 ug) on anti-Flag-coated protein G Dynabeads, 30 min at RT; Western blot. (In western blotting, separated proteins are transferred to a membrane and probed.)

For “Flag-tagged RIPK1 (Receptor Interacting Protein Kinase I) (from UniProt Q13546 1-671)”, the binding entry in experiment [1] is “binds”.
“DENV NS3 (NS3-V5, expressed without NS2B, DENV2 strain New Guinea C) (from UniProt P14340 1476-2093)”: the binding entry in experiment [2] is “binds”.

(Values after paper PMC9615918.)
